From US20240287164A1, “ANTIBODIES SPECIFIC TO NELL2 AND METHODS OF USE” (BOARD OF REGENTS, THE UNIVERSITY OF TEXAS SYSTEM, priority 2021, published 2024)
At least one structure is not confirmed: it was looked up by name or label, or the drawing left a doubt.

How the values were obtained:
BAF complexes = experiment: BAF subunit protein levels by immunoblotting in Ewing sarcoma cells; assay type: cell-based, human; conditions: A-673 cells treated with dasatinib
cdc42 and Rac = experiment: GST-PAKI pull-down of active cdc42 and Rac; assay type: cell-based, human; conditions: unsorted A-673 cells and CD133-overexpressing CD133^low population
Procedure: GST pull-down assays. The active form of cdc42, Rac, and Rho A was analyzed by pull-down of whole cell lysate with GST-PAKI (active cdc42 and Rac) and GST-RBD (active Rho A) followed by immunoblotting for cdc42, Rac, and Rho A as described (Ren, X. D., et al. (1999) EMBO J 18, 578-585).

Cc1nc(Nc2ncc(C(=O)Nc3c(C)cccc3Cl)s2)cc(N2CCN(CCO)CC2)n1 [dasatinib, reference compound]
BRG1, BAF155, and BAF47 levels (BAF complexes): downregulation of BRG1, BAF155, and BAF47
Active cdc42 and active Rac (cdc42 and Rac): increased active cdc42 and active Rac
